# Results from one PubChem assay

Source: PubChem BioAssay AID504749 (NCATS, 2011).

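A panel of P. falciparum strains inside erythrocytes is exposed to compounds for three days, then a DNA-binding dye reports the amount of parasite DNA. Each compound was titrated across a series from about 0.000037 to 29 µM. The number is the fitted AC50, the concentration giving a half-maximal change in signal; a lower value means higher potency, whether the curve shows a decrease or an increase. Calls follow the curve class and fit quality: every row here is inconclusive, covering signal-raising curves and weak, poorly fitted, partial or highest-dose-only inhibition curves.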

Values are in µM. All entries here are filed as inconclusive. These entries are mostly ones the record files as inconclusive; other results of the assay are not listed here. A potency from a partial, single-point or poor curve is only a rough figure. Some entries filed as inconclusive have a full curve. The first word of each remark tells which way the curve ran; it can be opposite to the aim of the assay.

SMILES | setting | potency (µM) | remark
CNCCC(Oc1ccccc1OC)c1ccccc1 (stereo not given) | CP329 | 8.492 | inhibitor, partial curve, poor fit
CNCCC(Oc1ccccc1OC)c1ccccc1 (stereo not given) | CP201 | 10.69 | inhibitor, partial curve, poor fit
CNCCC(Oc1ccccc1OC)c1ccccc1 (stereo not given) | DFO2036 | 8.912 | inhibitor, partial curve
CNCCC(Oc1ccccc1OC)c1ccccc1 (stereo not given) | SC27B | 10 | inhibitor, partial curve
CNCCC(Oc1ccccc1OC)c1ccccc1 (stereo not given) | TAB113 | 11.22 | inhibitor, single point
CNCCC(Oc1ccccc1OC)c1ccccc1 (stereo not given) | CP185 | 7.943 | inhibitor, partial curve
CNCCC(Oc1ccccc1OC)c1ccccc1 (stereo not given) | GB4 | 4.256 | inhibitor, partial curve, poor fit
CNCCC(Oc1ccccc1OC)c1ccccc1 (stereo not given) | CP252 | 10 | inhibitor, single point
CNCCC(Oc1ccccc1OC)c1ccccc1 (stereo not given) | CP256 | 11.22 | inhibitor, partial curve
CNCCC(Oc1ccccc1OC)c1ccccc1 (stereo not given) | CP269 | 10.69 | inhibitor, partial curve
CNCCC(Oc1ccccc1OC)c1ccccc1 (stereo not given) | CP265 | 12.59 | inhibitor, single point
CNCCC(Oc1ccccc1OC)c1ccccc1 (stereo not given) | TAB109 | 7.943 | inhibitor, partial curve
CNCCC(Oc1ccccc1OC)c1ccccc1 (stereo not given) | CP238 | 17.78 | inhibitor, single point
CNCCC(Oc1ccccc1OC)c1ccccc1 (stereo not given) | JCK | 11.22 | inhibitor, single point
CNCCC(Oc1ccccc1OC)c1ccccc1 (stereo not given) | ECU | 14.13 | inhibitor, single point
CNCCC(Oc1ccccc1OC)c1ccccc1 (stereo not given) | CP286 | 5.623 | inhibitor, partial curve
CNCCC(Oc1ccccc1OC)c1ccccc1 (stereo not given) | CP203 | 13.46 | inhibitor, partial curve
CNCCC(Oc1ccccc1OC)c1ccccc1 (stereo not given) | PC26 | 6.746 | inhibitor, partial curve
CNCCC(Oc1ccccc1OC)c1ccccc1 (stereo not given) | CP305 | 8.492 | inhibitor, partial curve, poor fit
CNCCC(Oc1ccccc1OC)c1ccccc1 (stereo not given) | CP247 | 3.162 | inhibitor, full curve
CNCCC(Oc1ccccc1OC)c1ccccc1 (stereo not given) | CP325 | 12 | inhibitor, partial curve
CNCCC(Oc1ccccc1OC)c1ccccc1 (stereo not given) | CP194 | 12 | inhibitor, partial curve
CNCCC(Oc1ccccc1OC)c1ccccc1 (stereo not given) | CP291 | 6.012 | inhibitor, partial curve, poor fit
CNCCC(Oc1ccccc1OC)c1ccccc1 (stereo not given) | PC15 | 4.467 | inhibitor, partial curve
CNCCC(Oc1ccccc1OC)c1ccccc1 (stereo not given) | ATS95 | 12.59 | inhibitor, single point
CNCCC(Oc1ccccc1OC)c1ccccc1 (stereo not given) | AS120 | 11.22 | inhibitor, single point
CNCCC(Oc1ccccc1OC)c1ccccc1 (stereo not given) | CP335 | 7.569 | inhibitor, partial curve
CNCCC(Oc1ccccc1OC)c1ccccc1 (stereo not given) | CP268 | 6.012 | inhibitor, partial curve
CNCCC(Oc1ccccc1OC)c1ccccc1 (stereo not given) | P93_24 | 6.31 | inhibitor, partial curve
CNCCC(Oc1ccccc1OC)c1ccccc1 (stereo not given) | CP260 | 10 | inhibitor, single point
CNCCC(Oc1ccccc1OC)c1ccccc1 (stereo not given) | DIV30 | 6.012 | inhibitor, partial curve
CNCCC(Oc1ccccc1OC)c1ccccc1 (stereo not given) | ATS189 | 5.012 | inhibitor, partial curve, poor fit
CNCCC(Oc1ccccc1OC)c1ccccc1 (stereo not given) | N140 | 8.912 | inhibitor, single point
CNCCC(Oc1ccccc1OC)c1ccccc1 (stereo not given) | CP217 | 10 | inhibitor, single point
CNCCC(Oc1ccccc1OC)c1ccccc1 (stereo not given) | PAD | 0.7943 | inhibitor, full curve, poor fit
CNCCC(Oc1ccccc1OC)c1ccccc1 (stereo not given) | ICS | 5.012 | inhibitor, partial curve
CNCCC(Oc1ccccc1OC)c1ccccc1 (stereo not given) | P94_40 | 17.78 | inhibitor, single point
CCCCC(=O)OC1CCC2C3CCc4cc(O)ccc4C3CC[C@]12C (stereo not given in full) | PAD | 17.78 | inhibitor, single point
CCCCC(=O)OC1CCC2C3CCc4cc(O)ccc4C3CC[C@]12C (stereo not given in full) | ICS | 15.85 | inhibitor, single point
CCCCC(=O)OC1CCC2C3CCc4cc(O)ccc4C3CC[C@]12C (stereo not given in full) | PC15 | 17.78 | inhibitor, single point
CCCCC(=O)OC1CCC2C3CCc4cc(O)ccc4C3CC[C@]12C (stereo not given in full) | CP297 | 0.0095 | activator
CCCCC(=O)OC1CCC2C3CCc4cc(O)ccc4C3CC[C@]12C (stereo not given in full) | CP335 | 16.94 | inhibitor, partial curve, poor fit
CCCCC(=O)OC1CCC2C3CCc4cc(O)ccc4C3CC[C@]12C (stereo not given in full) | CP247 | 12.59 | inhibitor, single point

Some entries from above, unchanged:

* CNCCC(Oc1ccccc1OC)c1ccccc1 (stereo not given) [CP305] | potency 8.492 µM (inhibitor, partial curve, poor fit)
* CNCCC(Oc1ccccc1OC)c1ccccc1 (stereo not given) [PC26] | potency 6.746 µM (inhibitor, partial curve)
* CNCCC(Oc1ccccc1OC)c1ccccc1 (stereo not given) [CP252] | potency 10 µM (inhibitor, single point)
* CNCCC(Oc1ccccc1OC)c1ccccc1 (stereo not given) [CP291] | potency 6.012 µM (inhibitor, partial curve, poor fit)